{"sequences": {"note": "Sequences of proteins named here, by UniProt entry; tags and fusion partners are left off. Residues count along the entry.", "UniProt P0AE72": "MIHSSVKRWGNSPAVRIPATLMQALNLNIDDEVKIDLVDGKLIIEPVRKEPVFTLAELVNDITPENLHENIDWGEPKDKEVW", "UniProt P0AE70, residues 2-111": "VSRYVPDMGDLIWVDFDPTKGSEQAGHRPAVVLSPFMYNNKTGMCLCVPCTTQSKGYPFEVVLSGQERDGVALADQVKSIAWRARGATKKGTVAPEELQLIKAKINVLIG"}, "source": "paper PMC7590665", "biological_target": "MazE antitoxin (E. coli) (UniProt P0AE72)", "assay": "co-purification", "note": "Results are given in words; binding and its absence hold for the method and conditions named. Some results given as binding are weak or reduced against the parent protein; the word gives no strength."}
{"substance": "MazF toxin (from UniProt P0AE70 2-111)", "values": [{"measurement": "binding", "result": "binds"}]}
